This passage reports binding results from paper doi:10.1101/2022.01.11.475891.

The target in assay [1] is T1, IrtB with a C-terminal 10x His tag (subunit of Mtb IrtAB) (M. tuberculosis H37Rv) (UniProt P9WQJ7).
T1 sequence: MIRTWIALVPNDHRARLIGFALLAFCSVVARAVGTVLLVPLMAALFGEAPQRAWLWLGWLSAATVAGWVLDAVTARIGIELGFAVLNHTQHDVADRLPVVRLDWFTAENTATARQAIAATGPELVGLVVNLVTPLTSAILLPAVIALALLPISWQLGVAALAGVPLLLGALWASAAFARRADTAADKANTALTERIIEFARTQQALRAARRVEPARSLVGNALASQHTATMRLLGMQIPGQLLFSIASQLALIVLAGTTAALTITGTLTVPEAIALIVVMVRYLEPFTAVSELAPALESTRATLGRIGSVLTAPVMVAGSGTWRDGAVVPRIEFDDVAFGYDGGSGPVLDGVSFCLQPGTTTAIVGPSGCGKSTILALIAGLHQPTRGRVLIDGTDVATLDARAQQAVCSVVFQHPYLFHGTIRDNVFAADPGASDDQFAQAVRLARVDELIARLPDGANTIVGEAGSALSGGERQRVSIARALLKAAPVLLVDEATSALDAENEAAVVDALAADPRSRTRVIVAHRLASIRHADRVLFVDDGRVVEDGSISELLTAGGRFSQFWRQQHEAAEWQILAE
Nature of the assay: cryo-EM structure.

In assay [2] the target is T1, IrtB with a C-terminal 10x His tag (subunit of Mtb IrtAB) (M. tuberculosis H37Rv). As to the kind of experiment: cryo-EM structure. This is another data set of the same source.

Where two headings read alike, the source gives them in different places. Results are given in words; binding and its absence hold for the method and conditions named. Binding can be weak; no strength is given. Sequences can lack the tags named with a protein.

For “SID truncated IrtA (subunit of IrtAB_(ΔSID)) (from UniProt P9WQJ9) (domain or fragment)”, the binding entry in assay [1] and in assay [2] was “binds” each time.
